All values are in %. The record does not define 0% and 100%; most values in the screen are far below 50% and negative numbers occur (in some assays of this library far below -100). The compounds are a random part of those screened.

The chains behind the UniProt entries cited, without tags or fusion partners.
UniProt E9BF75, entry or part of it: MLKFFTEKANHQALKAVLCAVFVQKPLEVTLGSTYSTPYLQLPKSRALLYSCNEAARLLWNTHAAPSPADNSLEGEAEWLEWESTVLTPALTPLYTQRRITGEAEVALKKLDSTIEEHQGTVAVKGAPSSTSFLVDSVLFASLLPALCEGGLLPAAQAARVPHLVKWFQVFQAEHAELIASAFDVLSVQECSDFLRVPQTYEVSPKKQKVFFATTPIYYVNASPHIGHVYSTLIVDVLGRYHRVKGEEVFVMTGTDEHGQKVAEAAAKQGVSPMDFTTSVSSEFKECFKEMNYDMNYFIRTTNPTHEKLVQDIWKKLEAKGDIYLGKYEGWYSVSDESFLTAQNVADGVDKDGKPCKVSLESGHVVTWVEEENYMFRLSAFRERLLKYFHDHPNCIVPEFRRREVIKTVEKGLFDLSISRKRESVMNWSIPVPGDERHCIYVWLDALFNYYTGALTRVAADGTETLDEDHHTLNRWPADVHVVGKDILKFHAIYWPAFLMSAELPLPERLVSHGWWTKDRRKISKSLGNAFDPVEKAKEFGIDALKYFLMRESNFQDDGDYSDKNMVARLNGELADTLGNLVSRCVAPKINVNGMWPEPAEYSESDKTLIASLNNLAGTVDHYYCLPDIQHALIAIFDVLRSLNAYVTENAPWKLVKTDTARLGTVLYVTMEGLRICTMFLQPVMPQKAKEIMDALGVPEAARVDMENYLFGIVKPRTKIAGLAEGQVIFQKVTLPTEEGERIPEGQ

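Methionyl-tRNA synthetase (putative), Leishmania donovani (UniProt E9BF75). Primary screen of methionyl-tRNA synthetase; the read-out is not stated. The test concentration is not given. The values are filed as inhibition. About 68,000 compounds were tested under these conditions; 0.035% (about 24) showed 50% or more at least once.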

compound | inhibition
CCc1c(O)nc(SCC(=O)N(CC)CC)n(C(C)CC)c1=O (stereo not given) | 12.85
Cc1cnc(C(=O)N2C[C@H]3CN(Cc4cccc(F)c4)C(=O)[C@H]3C2)cn1 | 8
CN(C)c1ncc(-c2cc(C(=O)N3CCCC3)n(CC3CC3)c2)cn1 | 5.519
CC(O)(CNC(=O)c1cccnc1-n1cccn1)c1ccco1 (stereo not given) | 22.52
COc1ccc(CCC(=O)N2CCNCC2C(=O)N2CCOCC2)cc1 (stereo not given) | 17.49
CCN(Cc1cc(F)c(OC)c(Cl)c1)Cc1noc(CC(C)C)n1 | 10.78
Cc1cc(CN2CCc3nn(C)c(=O)cc3C2)on1 | 15.93
O=C(c1cccnc1)N1CCc2[nH]nc(Nc3ccccc3)c2C1 | 19.06
CC(C)NC(=O)CN1CCC(c2cccc(F)c2)C1 (stereo not given) | 15.85
COCCN1C(=O)[C@H]2CC[C@@H]1CN(Cc1nnc(C3CC3)o1)C2 | 7.788
COc1ccc2c(ccn2CCC(=O)NCCCC(=O)O)c1 | 8.01
CNc1cc(-c2ccc(COCCN)cc2)c2cc[nH]c2n1 | 33.43
Cc1cccc(Nc2cc(C3CCCN(CC(N)=O)C3)ccn2)n1 (stereo not given) | 0.9375
NC(=O)c1cccc(CS(=O)(=O)CC(O)Cn2cccn2)c1 (stereo not given) | 10.47
c1cc(CNc2ncc(-c3cnccn3)c([C@@H]3CCCO3)n2)ccn1 | 11.55
CNC(=O)CN1CCOCC12CCN(Cc1ccncc1)CC2 | 19.88
c1cncc(CNc2ccc3nc(C4CCNCC4)nn3c2)c1 | 12.32
CCOc1ccc(-c2nc(C(=O)NCC3CCOC3)cs2)cc1 (stereo not given) | 12.82
CC(C)CN1CCC2(C1)CN(c1ncccn1)C2 | 5.226
CCCNC(=O)c1cc(C(C)C)nc(N2CCCCC2)n1 | -32.91
c1cncc(COCc2cncc3c2CCN(Cc2ccoc2)C3)c1 | 19.12
Cn1nccc1-c1nc2c(cc1C(=O)O)CCN(CC1CC1)CC2 | 5.479
COC(=O)c1ccc(NC2CCN(CC(F)(F)F)C2=O)cc1C (stereo not given) | 3.093
COc1cc(CNC(=O)c2c(C)noc2C(C)C)ccn1 | 8.502
Cc1cnn(CC2CCCN2C(=O)c2cc(Cl)ccc2F)c1 (stereo not given) | -1.742
CN(Cc1cccnc1)[C@@H]1CN(C(=O)NC2CC2)[C@@H]2CCCO[C@H]12 | 15.62
CC(C1CCN(Cc2c(Cl)cncc2Cl)CC1)N1CCN(C)CC1 (stereo not given) | 8.711
CC(C)(C(=O)NCc1ccccc1F)n1cc(Br)cn1 | 11.45
COc1nc(C)cc(C)c1CNC(=O)N(C)Cc1cnn(C)c1 | 13.02
Cc1ccc(OCCC(=O)NC2CC(=O)N(C)C2)cc1C (stereo not given) | -1.504
OC1(CNc2cc(C(F)(F)F)nc3ccccc23)CCOCC1 | 14.25
Cc1ccc(CN2CCc3onc(C(=O)NC(C)C)c3C2)o1 | 5.495
O=C1[C@@H]2CCN(Cc3ccncc3)C[C@@H]2OCCN1c1ccccc1 | 19.16
Cc1cccc2c1cnn2CCCNC(=O)c1ccnn1C | -7.286
OCCN1CCOC2(CCCN(c3cccc(F)c3)C2)C1 (stereo not given) | 16.38
Cc1cc(CNc2ccccc2Cl)no1 | 17.71
Cc1cnn(CCNC(C)C(=O)NCCc2cccs2)c1 (stereo not given) | 4.511
COc1ccc(OCCN(C)Cc2nc3c(cnn3C)c(=O)[nH]2)cc1 | 11.45
CC(C)COc1cncc(N2CCCN(CC(F)(F)F)CC2)n1 | 7.563
Cc1ccc(-c2noc(CCC(=O)NC(C)Cn3cccn3)n2)cc1 (stereo not given) | 17.68
Cc1ccc2c(c1)OC(C)CN2C(=O)CCc1cscn1 (stereo not given) | -4.359
Cc1ccc(-c2noc(CN3CC(n4cc(C)cn4)C3)n2)cc1 | 23.08
COc1ccc(C2(C(=O)NC3CCc4nccn4C3)CCCC2)cc1 (stereo not given) | 10.08
Cc1ccc(CN2C[C@@H]3COC[C@H](C(=O)N4CCCCO4)[C@@H]3C2)o1 | 21.25
CC(C)N(C)Cc1nnc2n1CCN(S(=O)(=O)C1CC1)CC2 | 7.266
CC(C)(C)c1noc(CCC(=O)N2CCNC(=O)C2)n1 | 12.39
O=C(O)CN1CCCC2(CCN2Cc2cccc(F)c2)C1 (stereo not given) | 3.117
Cn1cc(C2CC(=O)NC23CCN(C(=O)Cc2ccccn2)CC3)cn1 (stereo not given) | 17.26
OC1(CN2CCCCC2)CCN(c2nccc(C(F)(F)F)n2)C1 (stereo not given) | 7.572
CCn1nccc1CN(C)C(=O)Cn1nc(C)c(C)c1C | 9.346
Cc1ccc(C(=O)N2CCc3nc4c(C)csc4c(=O)n3CC2)cn1 | 11.53
COC(=O)C1(NCc2nc(C)c(C)o2)CCC(C)CC1 (stereo not given) | 4.11
CCc1c(C)sc2c1c(N)nc(=O)n2CCCN(C)C | 14.42
CCNC(=O)CNS(=O)(=O)Cc1cc(-c2ccccc2)no1 | 15.81
CN(Cc1ccc(Cl)s1)C(=O)c1cccc(OCC(N)=O)c1 | 11.96
CCC(=O)N1CCC2(C=C(C(=O)N(C)C)c3ccccc32)CC1 | 4.675
COC[C@@]12CCO[C@@H]1CCN(C(=O)C1CCSCC1)C2 | 19.61
Cc1ccc(CSc2ncc(Br)c(C(=O)O)n2)cc1 | 3.523
O=C(c1ccccc1N1CCOCC1)N1CCCC1Cn1cccn1 (stereo not given) | 12.71
CS(=O)(=O)NCc1cnc2n1CCN(Cc1cccnc1)CC2 | 14.38
CCN(C)C(=O)C1(c2ccc(F)cc2F)CCC1 | 8.333
CC(NC(=O)Nc1nccs1)C(=O)NC1CCCC1 (stereo not given) | 11.81
Oc1ccccc1CN1C[C@H](O)C[C@H]1c1nc(Cc2ccccc2)no1 | 10.99
Cc1cccc(N2CCc3ncnc(C4CC4)c3CC2)n1 | 19.93
Cc1csc(CCNC(=O)NC(C)Cn2cccn2)n1 (stereo not given) | 7.821
Cc1ccc(C2C3=C(COC3=O)Nc3[nH]nc(C)c32)cc1C (stereo not given) | 8.714
COc1ccnc(N2C[C@@H]3CC[C@H](C2)N(CC2CCC2)C3=O)n1 | 20.62
Cn1nc(CNC(=O)CN2C(=O)CCC2=O)cc1C1CC1 | 7.194
Cc1cc(=O)[nH]c(NCCNC(=O)C(c2ccc(F)cc2)N(C)C)n1 (stereo not given) | 7.5
CC(=O)N1CCCC1CCc1ccc(Cl)nn1 (stereo not given) | 4.651
Cc1cc(CN2CCOC(CNc3cccnn3)C2)on1 (stereo not given) | 27.11
Cc1nc(CCCNC(=O)c2c(F)cccc2Br)n[nH]1 | 3.904
Cn1ccc(NC2CCN(C3CC3)C2=O)n1 (stereo not given) | 1.045
Cn1cc(CCCNS(=O)(=O)N2CCCC2c2ccco2)cn1 (stereo not given) | 15.68
O=C(CCOc1ccccc1)N1CCC(Nc2cccnn2)CC1 | 14.96
COc1ccc(NC(=O)NC(C)c2nc[nH]n2)cc1Cl (stereo not given) | 12.81

From ChEMBL document CHEMBL3988442, “University of Dundee, Small-Polar-MMV Screening Library” (2021).